Measurements as given in PubChem BioAssay AID256 (DTP/NCI, 2004).
The list shows only some results of the screen, not a fair sample: it gathers tests that were run many times, whatever their T/C, doses with no T/C, and many T/C values between a quarter and a half above the control. Further doses and runs are listed elsewhere. T/C is the treated group as % of the vehicle group. Some doses have a count of surviving animals in place of a T/C: the source files T/C as zero there, which appears to mark a toxic dose or a test without result, not a measured value. Some survivor counts are full or nearly so, which does not show that the dose was tolerated: the source hardly ever lists a survival T/C far under the control, and the zero likely stands for such cases as well. Counts of survivors are from the toxicity check (mostly the fifth day) where no day follows; animals may have died later. Schedule codes are those of the source, read here as Q, the interval in days (D) or hours (H), X, the number of doses. Some entries were tested several times; their values stand side by side, smallest first. Where survival is the endpoint, the PubChem record calls one and a half times the control and up active, and a quarter to a half above the control has no call in these data; cut-offs in other NCI protocols can differ. Some T/C values carry the count of animals alive at the toxicity check (mostly the fifth day); without a count, all were alive then.

Test system: CD2F1 mice, L1210 leukemia ip, survival T/C
Test: NCI In Vivo Anticancer Drug Screen. Data for tumor model L1210 Leukemia (intraperitoneal) in CD2F1 (CDF1) mice
Conditions: T/C endpoint: mean survival time, higher T/C = longer survival
How it was run: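 Antitumor effect is scored in animals hosting a serially transplanted tumor. Values compare compound-dosed animals against vehicle-only controls as a simple quotient.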

[1] = dose: 100.0 mg/kg/injection, schedule: Q01DX009 (ip), vehicle: saline
[2] = dose: 200.0 mg/kg/injection, schedule: Q01DX009 (ip), vehicle: saline
[3] = dose: 100.0 mg/kg/injection, schedule: Q01DX001 (ip), vehicle: saline with Tween-80
[4] = dose: 200.0 mg/kg/injection, schedule: Q01DX001 (ip), vehicle: saline with Tween-80
[5] = dose: 400.0 mg/kg/injection, schedule: Q01DX001 (ip), vehicle: saline with Tween-80
[6] = dose: 200.0 mg/kg/injection, schedule: Q01DX009 (ip), vehicle: saline with Tween-80
[7] = dose: 400.0 mg/kg/injection, schedule: Q04DX003 (ip), vehicle: saline with Tween-80

Question: Which T/C (dose: 0.78 mg/kg/injection, schedule: Q01DX001 (ip), vehicle: dextrose) does the source give for O=S(=O)(O)O.[NH-]C1CCCCCC1[NH-].[Pt+2] (stereo not drawn) here?
Answer: 129 % of control

Question: What about the T/C (dose: 0.78 mg/kg/injection, schedule: Q04DX003 (ip), vehicle: dextrose) of the same compound?
Answer: 127 and 131 % of control

Question: What about the T/C (dose: 1.56 mg/kg/injection, schedule: Q01DX001 (ip), vehicle: dextrose) of the same compound?
Answer: 142 % of control

Question: And the T/C (dose: 1.56 mg/kg/injection, schedule: Q04DX003 (ip), vehicle: dextrose)?
Answer: 137 % of control

Question: What about the T/C (dose: 6.25 mg/kg/injection, schedule: Q04DX003 (ip), vehicle: dextrose) of the same compound?
Answer: 125 % of control

Question: And the survivor count (dose: 12.5 mg/kg/injection, schedule: Q01DX001 (ip), vehicle: dextrose)?
Answer: 1 of 6

Question: And the survivor count (dose: 12.5 mg/kg/injection, schedule: Q04DX003 (ip), vehicle: dextrose)?
Answer: 3 of 6 and 6 of 6

Question: And the survivor count (dose: 25.0 mg/kg/injection, schedule: Q01DX001 (ip), vehicle: dextrose)?
Answer: 0 of 6 and 1 of 6

Question: What about the survivor count (dose: 25.0 mg/kg/injection, schedule: Q04DX003 (ip), vehicle: dextrose) of the same compound?
Answer: 0 of 6 and 4 of 6

Question: For Oc1ccccc1C=NCCC[N-]CCCN=Cc1ccccc1O.[Co], which survivor count [1] is on record?
Answer: 1 of 6

Question: What about the survivor count [2] of the same compound?
Answer: 0 of 6

Question: How did the survivor count (dose: 300.0 mg/kg/injection, schedule: Q01DX001 (ip), vehicle: other) turn out when FC(F)(F)c1[nH]nc(-c2ccc(Cl)cc2)c1N=NN1CCOCC1 was run?
Answer: 3 of 6

Question: For CCN1C=C/C(=C/c2cc3scc(-c4ccccc4)[n+]3c3ccccc23)c2ccccc21, which survivor count (dose: 0.08 mg/kg/injection, schedule: Q04DX003 (ip), vehicle: saline with Tween-80) is on record?
Answer: 2 of 6

Question: What about the survivor count (dose: 0.16 mg/kg/injection, schedule: Q04DX003 (ip), vehicle: saline with Tween-80) of the same compound?
Answer: 2 of 6

Question: And the survivor count (dose: 0.32 mg/kg/injection, schedule: Q04DX003 (ip), vehicle: saline with Tween-80)?
Answer: 2 of 6

Question: What does the source list for [Co].[N-]=C=S.[N-]=C=S.[N-]=C=S.[NH2-].[NH2-].[NH2-]?
Answer: T/C [3]: 94, 97, 101, 110 % of control; T/C [4]: 87, 101, 103, 109 % of control [5 of 6 alive]; T/C [5]: 121 % of control [2 of 3 alive]; survivor count [5]: 0 of 6 and 1 of 6; survivor count (dose: 600.0 mg/kg/injection, schedule: Q01DX001 (ip), vehicle: saline with Tween-80): 0 of 6

Question: Which survivor count (dose: 400.0 mg/kg/injection, schedule: Q01DX009 (ip), vehicle: saline) does the source give for O=P(O)(O)OCC(O)CCl (stereo not drawn) here?
Answer: 6 of 6

Question: What does the source list for N#C[Se]C[Se]C#N?
Answer: survivor count (dose: 12.5 mg/kg/injection, schedule: Q01DX001 (ip), vehicle: saline with Tween-80): 2 of 6; survivor count (dose: 25.0 mg/kg/injection, schedule: Q01DX001 (ip), vehicle: saline with Tween-80): 0 of 6; survivor count [3]: 0 of 6; survivor count [4]: 0 of 6; survivor count [5]: 0 of 6

Question: Which survivor count (dose: 100.0 mg/kg/injection, schedule: Q04DX003 (ip), vehicle: saline) does the source give for CN1C=c2c3c(ccc2=C2C=CC4C=C5OCOC5=CC4=C21)OCO3 (stereo not drawn) here?
Answer: 5 of 6

Question: What about the survivor count (dose: 200.0 mg/kg/injection, schedule: Q04DX003 (ip), vehicle: saline) of the same compound?
Answer: 0 of 6

Question: What about the survivor count (dose: 400.0 mg/kg/injection, schedule: Q04DX003 (ip), vehicle: saline) of the same compound?
Answer: 0 of 6

Question: Which results are given for O=C(O)c1cnc2cc(Cl)ccc2n1?
Answer: survivor count [6]: 3 of 6; survivor count [7]: 3 of 6

Question: With ClP1(c2ccccc2)=NP(Cl)(c2ccccc2)=NP(Cl)(c2ccccc2)=NP(Cl)(c2ccccc2)=N1 (stereo not drawn) as the compound, how does the survivor count [7] read?
Answer: 6 of 6

Question: Which results are given for O=C1C=C(NC2CCCCCC2)C(=O)c2nccnc21?
Answer: survivor count (dose: 100.0 mg/kg/injection, schedule: Q01DX009 (ip), vehicle: saline with Tween-80): 0 of 3; survivor count [6]: 0 of 3

Question: For C=CCOCC(O)CNCCCC (stereo not drawn), which survivor count [1] is on record?
Answer: 0 of 3

Question: And the survivor count [2]?
Answer: 0 of 3

Question: How did the survivor count (dose: 200.0 mg/kg/injection, schedule: Q04DX002 (ip), vehicle: saline) turn out when Nc1ccccc1-c1ccccc1N was run?
Answer: 3 of 3

Question: What about the survivor count (dose: 400.0 mg/kg/injection, schedule: Q04DX002 (ip), vehicle: saline) of the same compound?
Answer: 0 of 3

Question: How did the survivor count [7] turn out when CC12CCC(=O)C=C1CCC1C2CCC2(C)C(C(=O)O)CCC12 (stereo not drawn) was run?
Answer: 3 of 6

Question: What does the source list for O=C(O)c1sc(C(=O)O)c(O)c1O?
Answer: survivor count [3]: 1 of 3; survivor count [4]: 1 of 3; survivor count [5]: 0 of 3

Question: COc1ccc2c(c1O)CNCC2c1ccc(O)cc1O (stereo not drawn) was tested. Which survivor count (dose: 300.0 mg/kg/injection, schedule: Q01DX001 (ip), vehicle: saline) did it give?
Answer: 0 of 6

Question: With O=C(c1ccc(-c2ccccc2)cc1)c1no[n+]([O-])c1C(=O)c1ccc(-c2ccccc2)cc1 as the compound, how does the survivor count (dose: 400.0 mg/kg/injection, schedule: Q01DX009 (ip), vehicle: saline with Tween-80) read?
Answer: 6 of 6

Question: N#CC(O)Cc1ccccc1 (stereo not drawn) was tested. Which survivor count (dose: 20.0 mg/kg/injection, schedule: Q04DX003 (ip), vehicle: saline) did it give?
Answer: 1 of 6

Question: And the survivor count (dose: 100.0 mg/kg/injection, schedule: Q04DX003 (ip), vehicle: other)?
Answer: 0 of 6

Question: What about the survivor count (dose: 200.0 mg/kg/injection, schedule: Q04DX003 (ip), vehicle: other) of the same compound?
Answer: 0 of 6

Question: What about the survivor count (dose: 400.0 mg/kg/injection, schedule: Q04DX003 (ip), vehicle: other) of the same compound?
Answer: 0 of 6
